This note sets out measurements from the supplement of paper PMC9135407.

The experiment relates to primary human hepatic stellate cells (donor 1). Description: percent Bodipy-positive cells; higher = more lipid droplet accumulation. Particulars: 48 h.
The mark [1] stands for this setting: library stock concentration: 10 mM.
[2] abbreviates: library stock concentration: 1 mM.
The mark [3] stands for this setting: library stock concentration: 3.33 mM.

Each structure is given as a SMILES string. Values joined by “and” are separate entries in the source; they are usually repeats but may differ in a detail not shown here. Equal values may be shown once. Where a name gives a salt, the structure may show the parent alone. ± gives the standard deviation of the averaged measurements. The list shows a part of the results. Baselines shift from plate to plate; read single values as rough.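 Culture-activated primary human stellate myofibroblasts, where regained lipid droplets signal inactivation. Value: share of Hoechst-counted cells above a per-plate Bodipy cutoff, in duplicate wells, with DMSO negative and nortriptyline positive controls on each plate. Hits: a control-normalized score above the plate's top-tenth-percentile nortriptyline wells, or one of a plate's three best wells. Final well concentrations are not given.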

For the molecule `C=CCN1CC[C@]23c4c5ccc(O)c4O[C@H]2/C(=N/NC(=O)c2ccccc2)CC[C@@]3(O)[C@H]1C5` [Naloxone benzoylhydrazone], under setting [1], the “percent Bodipy-positive cells” value was determined as 8.69 ± 0.36%.
For the molecule `COc1ccc(/C=C/C(=O)CC(=O)/C=C/c2ccc(OC)c(OC)c2)cc1OC` [Dimethoxycurcumin], the “percent Bodipy-positive cells” value under setting [2] came out at 9.63 ± 4.1%.
For the molecule `O=c1[nH]c2ccccc2n1CCCN1CCC(n2c(=O)[nH]c3cc(Cl)ccc32)CC1` [Domperidone], the “percent Bodipy-positive cells” value stood at 53.1 ± 8.6%. Also, under setting [3], the “percent Bodipy-positive cells” value was found to be 16.2 ± 1.8%. The “percent Bodipy-positive cells” value (library stock concentration: 4.7 mM) was 23.4% and 25.2%.
In the case of `COP(=S)(OC)Oc1ccc(SC)c(C)c1`, the “percent Bodipy-positive cells” value under setting [1] stood at 31.14 ± 0.21%.
Take `O=C([O-])c1ccccc1-c1c2cc(Br)c(=O)cc-2oc2[c]([Hg+])c([O-])c(Br)cc12.[Na+].[Na+].[OH-]` [Merbromin]: the “percent Bodipy-positive cells” value is 5.93 ± 5.8%. Moreover, the “percent Bodipy-positive cells” value under setting [1] was found to be 25.8 ± 18%.
Turning to `CN1C[C@H](C(=O)N[C@]2(C)O[C@@]3(O)[C@@H]4CCCN4C(=O)[C@H](Cc4ccccc4)N3C2=O)C[C@@H]2c3cccc4[nH]cc(c34)C[C@H]21.CS(=O)(=O)O` [Dihydroergotamine methanesulfonate], under setting [1], the “percent Bodipy-positive cells” value was 94.618 ± 0.044%.
Turning to `C/C=C1/C[N+]2(C)CCC34C(=C(C=O)[C@H]1C[C@@H]32)Nc1ccccc14` (stereo not given in full) [Fluorocurarine chloride], the “percent Bodipy-positive cells” value was 8.49 ± 2.1%.
Take `CC(C)[N+](C)(CCC(C(N)=O)(c1ccccc1)c1ccccc1)C(C)C` [Isopropamide iodide]: the “percent Bodipy-positive cells” value amounted to 9.06 ± 1.4%. In addition, under setting [1], the “percent Bodipy-positive cells” value is 16.9 ± 1.4%.
With `C=C1[C@H]2C[C@@]3([C@@H]1O)[C@@H](C[C@@H]2O)[C@]12[C@@H]4C[C@H]3[C@H]1N(CC)C[C@]4(C)CC[C@@H]2O` [Napelline], the “percent Bodipy-positive cells” value is 8.21 ± 3.2%.
For the molecule `CCCCC/C=C\C/C=C\C/C=C\C/C=C\CCCC(=O)NCc1ccc(O)c(OC)c1` [Arvanil], under setting [2], the “percent Bodipy-positive cells” value came out at 12.1 ± 6.9%.
With `C#C[C@]1(O)CC[C@H]2[C@@H]3CCC4=CC(=O)CC[C@]4(C)[C@H]3CC[C@@]21C` [Ethisterone], the “percent Bodipy-positive cells” value came out at 30.9 ± 11%. Further, the “percent Bodipy-positive cells” value under setting [1] was 81.7 ± 0.95%.
In the case of `S=C(NC1CCCCC1)N1CCC(c2cnc[nH]2)CC1` [Thioperamide], the “percent Bodipy-positive cells” value under setting [1] was determined as 10.7 ± 2.4%.
For the molecule `S=C(NC1CCCCC1)N1CCC(c2cnc[nH]2)CC1` [Thioperamide maleate], the “percent Bodipy-positive cells” value worked out at 11.7 ± 1.2%. Also, the “percent Bodipy-positive cells” value under setting [1] was found to be 24.2 ± 5.1%.
Turning to `C#CCN(C)C(C)Cc1ccccc1` (stereo not given) [Deprenyl], for the setting “library stock concentration: 26.7 mM”, the “percent Bodipy-positive cells” value stood at 21.2 ± 2.8%.
For the molecule `CN1C[C@H](CNC(=O)OCc2ccccc2)C[C@@H]2c3cccc4c3c(cn4C)C[C@H]21` [Metergoline], the “percent Bodipy-positive cells” value under setting [1] turned out to be 68.1 ± 15%.
With `O=C([O-])Cc1ccccc1.[Na+]` [Sodium phenylacetate], the “percent Bodipy-positive cells” value (library stock concentration: 12.6 mM) was 7.4% and 2.37%.
Regarding `N=C(NCc1ccc(Cl)cc1)SCCCc1c[nH]cn1` [Clobenpropit], the “percent Bodipy-positive cells” value under setting [1] was determined as 62.9 ± 10%.
As to `CN1[C@@H]2CC(O)C[C@H]1[C@@H]1O[C@@H]12` (stereo not given in full) [Scopine HCl], the “percent Bodipy-positive cells” value under setting [3] is 6.06 ± 1.3% and the “percent Bodipy-positive cells” value under setting [1] worked out at 10.1 ± 1.4%.
With `COc1ccc2c(c1)[nH]c1c(C)nccc12` [Harmine], the “percent Bodipy-positive cells” value (library stock concentration: 9.4 mM) turned out to be 64 ± 6.7%.
For the molecule `N[C@@H](Cn1oc(=O)[nH]c1=O)C(=O)O` [L-Quisqualic acid], the “percent Bodipy-positive cells” value under setting [1] amounted to 7.85 ± 3.8%.
Consider `NC(N)=NOCC[C@H](N)C(=O)O` [L-Canavanine sulfate], for which the “percent Bodipy-positive cells” value under setting [1] worked out at 30.4 ± 0.59%.
For the molecule `NC(N)=NOCC[C@H](N)C(=O)O` [Canavanine sulfate monohydrate (L,+)], the “percent Bodipy-positive cells” value was found to be 27.9 ± 6.8%.
In the case of `NC(N)=NOCC[C@H](N)C(=O)O` [Canavanine], the “percent Bodipy-positive cells” value under setting [1] was found to be 20.8 ± 0.78%.
In the case of `NC(N)=NOCC[C@H](N)C(=O)O` [L-Canavanine], under setting [1], the “percent Bodipy-positive cells” value was 22.9 ± 8%.
In the case of `O=S(=O)(CC1CS1)c1ccc(Oc2ccccc2)cc1` (stereo not given), the “percent Bodipy-positive cells” value amounted to 30.3 ± 3.6% under setting [3] and 42.2 ± 11% under setting [1].
With `C[C@H](Cc1ccc(OCC(=O)O)cc1)NC[C@H](O)c1cccc(Cl)c1`, the “percent Bodipy-positive cells” value under setting [1] was found to be 6.14 ± 0.11%.
Regarding `CC(=O)N(C)c1cccc(-c2ccnc3c(C(=O)c4cccs4)cnn23)c1` [Indiplon], the “percent Bodipy-positive cells” value under setting [1] is 8.87 ± 1.4%.
For the molecule `CN1[C@@H]2CCC[C@H]1CC(=O)C2` [Pseudopelletierine hydrochloride], the “percent Bodipy-positive cells” value worked out at 37.9 ± 9.8%.
Turning to `C=C(C)[C@H]1CN[C@H](C(=O)O)[C@H]1CC(=O)O` [(-)-(.alpha.)-Kainic Acid (hydrate)], the “percent Bodipy-positive cells” value under setting [2] stood at 7.15 ± 2.7%.
With `CN1C2CCC1CC(OC(c1ccc(F)cc1)c1ccc(F)cc1)C2.Cl` (stereo not given), under setting [1], the “percent Bodipy-positive cells” value was 77.4 ± 3.2%.
The same measure, in the same setting: for `O=C(N[C@H]1CN2CCC1CC2)c1cc2ccoc2cn1` the value was 37 ± 2.4%.
On the same count and under the same terms, for `C[C@H](N)Cc1cnc[nH]1` [(S)-(+)-a-Methylhistamine dihydrobromide] the value was 5.81 ± 1.8%.
On to `Cc1cc(O)ccc1Cl` [Chlorocresol], for which the “percent Bodipy-positive cells” value by setting is: under setting [3], 8.31 ± 3.4%; (library stock concentration: 14 mM) 3.71 ± 0.96%.
Take `c1ccc(CCCCN2CCC(c3ccccc3)CC2)cc1` [4-PPBP maleate]: the “percent Bodipy-positive cells” value under setting [1] turned out to be 63.4 ± 4.2%.
On the same count and under the same terms, for `O=[N+]([O-])c1ccc2nc(N3CCNCC3)ccc2c1` [Quipazine, 6-nitro-, maleate] the value was 64.9 ± 2.7%.
Regarding `COc1cc(C=Cc2ccc(OC)c(O)c2)cc(OC)c1`, the “percent Bodipy-positive cells” value under setting [2] stood at 49.1 ± 7.1%.
